Experimental data from article PMC12431861.

By UniProt entry, the sequences of proteins in these tests, tags left out.
UniProt Q8BX22: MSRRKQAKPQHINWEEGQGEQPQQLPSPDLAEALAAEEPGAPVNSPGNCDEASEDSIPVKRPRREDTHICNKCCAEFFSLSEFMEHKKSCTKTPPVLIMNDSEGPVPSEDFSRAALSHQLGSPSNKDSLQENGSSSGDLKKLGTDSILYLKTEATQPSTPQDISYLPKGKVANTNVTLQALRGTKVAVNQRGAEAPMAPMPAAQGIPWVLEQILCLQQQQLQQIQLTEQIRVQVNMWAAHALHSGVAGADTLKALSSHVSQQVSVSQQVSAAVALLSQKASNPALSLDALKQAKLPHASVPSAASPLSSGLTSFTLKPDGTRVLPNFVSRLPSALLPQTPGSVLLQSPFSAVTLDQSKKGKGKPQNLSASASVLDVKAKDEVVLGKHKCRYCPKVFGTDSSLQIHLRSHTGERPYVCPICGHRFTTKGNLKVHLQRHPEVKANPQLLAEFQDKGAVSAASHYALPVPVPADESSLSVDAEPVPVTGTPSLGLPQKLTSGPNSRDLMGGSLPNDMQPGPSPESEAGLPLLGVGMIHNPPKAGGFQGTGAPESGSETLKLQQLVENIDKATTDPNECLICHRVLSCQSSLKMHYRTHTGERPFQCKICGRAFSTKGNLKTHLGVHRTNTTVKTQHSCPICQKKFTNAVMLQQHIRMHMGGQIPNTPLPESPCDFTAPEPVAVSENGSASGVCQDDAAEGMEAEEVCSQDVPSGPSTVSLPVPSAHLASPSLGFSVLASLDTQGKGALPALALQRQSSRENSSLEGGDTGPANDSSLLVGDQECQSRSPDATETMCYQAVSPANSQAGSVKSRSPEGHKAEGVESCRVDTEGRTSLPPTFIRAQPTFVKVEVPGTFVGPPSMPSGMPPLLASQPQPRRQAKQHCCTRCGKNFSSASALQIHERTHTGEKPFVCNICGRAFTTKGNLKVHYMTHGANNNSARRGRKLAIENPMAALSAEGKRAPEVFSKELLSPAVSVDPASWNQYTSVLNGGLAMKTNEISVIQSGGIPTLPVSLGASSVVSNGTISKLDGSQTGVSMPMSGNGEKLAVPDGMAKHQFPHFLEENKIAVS
UniProt Q80U70: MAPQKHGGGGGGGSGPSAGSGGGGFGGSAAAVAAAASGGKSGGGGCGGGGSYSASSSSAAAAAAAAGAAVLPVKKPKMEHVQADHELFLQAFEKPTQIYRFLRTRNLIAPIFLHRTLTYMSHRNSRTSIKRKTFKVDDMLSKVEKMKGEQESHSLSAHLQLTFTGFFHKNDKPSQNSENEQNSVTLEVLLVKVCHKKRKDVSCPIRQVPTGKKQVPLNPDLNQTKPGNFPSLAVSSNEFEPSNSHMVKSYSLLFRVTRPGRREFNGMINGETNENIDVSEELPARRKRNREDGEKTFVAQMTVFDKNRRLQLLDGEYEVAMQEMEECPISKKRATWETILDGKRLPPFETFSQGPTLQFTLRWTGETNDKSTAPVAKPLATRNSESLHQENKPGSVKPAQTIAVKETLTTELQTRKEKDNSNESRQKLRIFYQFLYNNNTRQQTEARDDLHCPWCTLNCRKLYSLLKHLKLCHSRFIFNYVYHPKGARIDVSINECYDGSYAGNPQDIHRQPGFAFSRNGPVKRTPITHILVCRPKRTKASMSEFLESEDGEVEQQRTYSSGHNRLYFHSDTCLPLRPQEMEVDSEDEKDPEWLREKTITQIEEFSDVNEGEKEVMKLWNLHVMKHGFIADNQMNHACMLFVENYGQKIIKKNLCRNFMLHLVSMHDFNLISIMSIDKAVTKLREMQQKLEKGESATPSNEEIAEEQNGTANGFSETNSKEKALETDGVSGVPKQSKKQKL
UniProt Q64511: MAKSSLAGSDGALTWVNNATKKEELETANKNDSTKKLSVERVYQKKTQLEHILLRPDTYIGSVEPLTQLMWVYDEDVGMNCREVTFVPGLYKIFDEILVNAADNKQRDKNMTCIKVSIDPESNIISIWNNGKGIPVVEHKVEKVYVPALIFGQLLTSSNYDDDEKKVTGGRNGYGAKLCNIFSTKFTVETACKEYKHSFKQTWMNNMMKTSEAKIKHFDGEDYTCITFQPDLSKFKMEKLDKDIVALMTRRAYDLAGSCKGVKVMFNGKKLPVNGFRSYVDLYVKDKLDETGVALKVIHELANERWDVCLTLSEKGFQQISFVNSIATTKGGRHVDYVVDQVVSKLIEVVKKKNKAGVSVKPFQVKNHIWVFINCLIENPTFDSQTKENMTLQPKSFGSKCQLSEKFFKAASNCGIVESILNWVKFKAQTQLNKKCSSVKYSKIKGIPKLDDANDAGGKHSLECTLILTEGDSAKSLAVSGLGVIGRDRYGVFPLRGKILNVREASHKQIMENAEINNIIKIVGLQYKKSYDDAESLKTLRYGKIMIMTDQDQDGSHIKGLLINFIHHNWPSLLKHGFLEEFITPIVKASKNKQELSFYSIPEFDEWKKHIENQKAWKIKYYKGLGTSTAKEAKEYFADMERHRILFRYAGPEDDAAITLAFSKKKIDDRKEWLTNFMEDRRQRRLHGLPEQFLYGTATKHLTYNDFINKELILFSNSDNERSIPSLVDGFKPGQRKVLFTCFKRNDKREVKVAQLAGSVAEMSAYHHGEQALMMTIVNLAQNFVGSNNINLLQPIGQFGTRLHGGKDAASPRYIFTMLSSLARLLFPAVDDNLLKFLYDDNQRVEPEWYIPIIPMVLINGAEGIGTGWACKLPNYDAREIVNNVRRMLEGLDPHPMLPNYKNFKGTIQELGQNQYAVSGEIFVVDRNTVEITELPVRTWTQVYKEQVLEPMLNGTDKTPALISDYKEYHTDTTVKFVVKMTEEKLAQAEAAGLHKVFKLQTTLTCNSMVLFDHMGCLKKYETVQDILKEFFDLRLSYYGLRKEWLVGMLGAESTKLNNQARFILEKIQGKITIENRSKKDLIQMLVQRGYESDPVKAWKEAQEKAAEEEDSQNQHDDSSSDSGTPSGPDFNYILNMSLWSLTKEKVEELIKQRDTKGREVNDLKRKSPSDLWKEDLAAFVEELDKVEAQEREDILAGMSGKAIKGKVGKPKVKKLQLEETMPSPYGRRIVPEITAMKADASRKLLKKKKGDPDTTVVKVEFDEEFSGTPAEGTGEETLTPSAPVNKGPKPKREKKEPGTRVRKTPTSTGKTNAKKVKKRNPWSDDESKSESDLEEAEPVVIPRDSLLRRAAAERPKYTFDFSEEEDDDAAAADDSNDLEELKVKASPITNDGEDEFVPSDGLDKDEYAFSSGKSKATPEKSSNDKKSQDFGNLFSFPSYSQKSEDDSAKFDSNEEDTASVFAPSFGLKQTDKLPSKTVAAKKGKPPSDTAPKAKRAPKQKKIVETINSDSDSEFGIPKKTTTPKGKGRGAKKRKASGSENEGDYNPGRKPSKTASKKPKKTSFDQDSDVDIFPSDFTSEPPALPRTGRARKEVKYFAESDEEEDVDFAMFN
UniProt Q91ZW3: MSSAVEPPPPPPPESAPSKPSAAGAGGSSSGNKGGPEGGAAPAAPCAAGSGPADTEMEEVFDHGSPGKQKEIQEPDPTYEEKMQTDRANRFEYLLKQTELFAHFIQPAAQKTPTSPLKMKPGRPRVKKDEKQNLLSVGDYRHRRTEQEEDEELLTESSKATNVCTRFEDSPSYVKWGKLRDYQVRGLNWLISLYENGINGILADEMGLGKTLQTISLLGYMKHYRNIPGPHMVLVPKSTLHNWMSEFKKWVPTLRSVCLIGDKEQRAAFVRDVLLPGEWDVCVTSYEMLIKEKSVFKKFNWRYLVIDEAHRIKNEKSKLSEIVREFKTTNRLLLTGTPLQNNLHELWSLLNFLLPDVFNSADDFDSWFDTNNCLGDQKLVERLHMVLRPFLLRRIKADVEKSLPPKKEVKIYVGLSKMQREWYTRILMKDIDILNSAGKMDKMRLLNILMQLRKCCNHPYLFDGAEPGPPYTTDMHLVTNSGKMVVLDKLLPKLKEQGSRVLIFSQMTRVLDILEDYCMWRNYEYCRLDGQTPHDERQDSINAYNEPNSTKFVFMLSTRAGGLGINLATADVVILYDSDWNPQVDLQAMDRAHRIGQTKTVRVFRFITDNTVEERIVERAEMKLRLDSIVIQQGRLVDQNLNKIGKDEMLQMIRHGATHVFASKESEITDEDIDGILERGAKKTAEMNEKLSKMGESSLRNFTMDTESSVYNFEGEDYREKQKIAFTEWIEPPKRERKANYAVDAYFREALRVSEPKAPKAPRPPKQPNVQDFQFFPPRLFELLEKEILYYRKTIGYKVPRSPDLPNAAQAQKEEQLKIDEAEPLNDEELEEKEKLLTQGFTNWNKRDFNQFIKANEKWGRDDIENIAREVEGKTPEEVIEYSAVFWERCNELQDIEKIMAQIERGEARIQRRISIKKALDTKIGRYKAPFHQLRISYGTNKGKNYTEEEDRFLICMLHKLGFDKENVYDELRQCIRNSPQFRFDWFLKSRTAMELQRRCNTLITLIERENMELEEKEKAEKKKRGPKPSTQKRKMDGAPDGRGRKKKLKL

B1: Dppa4 (protein, UniProt Q8CCG4 1-296)
chain: METAGDKKWSAEEPKEEVELQMSSQPSTAPAKAKATGKKQKKSETDNGCKPKEGKPQDTETPGQTRRKVPIPPIPEYLPPVNLIHRDVLRAWCQKKRVSSKGQKLDAYKRLLARAFPEQMLELRNVPDSAKDARLKTAHKKMKTEPGEESEVTVPLEMVPVPEEQIPALIDPPMLYEEVSTTVVTTPATEAVLASWARIASNAKKYEAVPADASSSSEVKGEMWCVVHGTSLPGNSRGWVRLQFHAGQAWVPDKKGKAIALFLLPACTFPPPHLEDNMLCPKCVHKNKILTKSLEG
B2: Dppa2 (protein, UniProt Q9CWH0 1-301)
chain: MSYFGLETFNENQSEENLDEESVILTLVPFKEEEEPNTDYATQSNVSSSTLDHTPPARSLVRHAGIKHPTRTIPSTCPPPSLPPIRDVSRNTLREWCRYHNLSTDGKKVEVYLRLRRHSYSKQECYIPNTSREARMKQGPKKSKIVFRGIGPPSGCQRKKEESGVLEILTSPKESTFAAWARIAMRAAQSMSKNRCPLPSNVEAFLPQATGSRWCVVHGRQLPADKKGWVRLQFLAGQTWVPDTPQRMNFLFLLPACIIPEPGVEDNLLCPECVHSNKKILRNFKIRSRAKKNALPPNMPP
B3: Zbtb44 (protein, UniProt Q8R0A2 1-453)
chain: MGVKTFTHSSSSHSQEMLGKLNMLRNDGHFCDITIRVQDKIFRAHKVVLAACSDFFRTKLVGQTEDENKNVLDLHHVTVTGFIPLLEYAYTATLSINTENIIDVLAAASYMQMFSVASTCSEFMKSSILWNTPNSQPEKSLDAGQENSSNCNFTSRDGSISPVSSECSAVERTIPVCRESRRKRKSYIVMSPESPVKCSTQTSSPQVLNSSASYAENRSQPVDSSLAFPWTFPFGIDRRIQPEKAKQAENTRTLELPGPSEAGRRVADYVTCESTKPTLPLGTEEDVRVKVERLSDEEVHEEVSQPVSASQSSLSDQQTVPGSEPVQEDLLISPQSSSIGSVDEGVTEGLPTLQSTSSTNAHADDDDRLENVQYPYQLYIAPSTSSTERPSPNGPDRPFQCPTCGVRFTRIQNLKQHMLIHSGIKPFQCDCCGKKFTRAYSLKMHRLKHEVIS
B4: Fiz1 (protein, UniProt Q9WTJ4 1-500)
chain: MEDSSLPVVPAPIAAPGPAPSATAPRVPFHCSECGKSFRYRSDLRRHFARHTALKPHACPRCGKGFKHSFNLANHLRSHTGERPYRCSACPKGFRDSTGLLHHQVVHTGEKPYCCLVCELRFSSRSSLGRHLKRQHRGTLPSPLQPSPGLPPLSSPCSVCCNVGPCSVCGGGGSSGGEGLEGAGATSWGLAEAAAAAAASLPPFACGACARRFDHGRELAAHWAAHTDVKPFKCPRCERDFNAPALLERHKLTHDLQGSNAPPTQVWASGGGPEVAGEGDASEVGAAPQTWDAGLLLSPTGAGVPKLEALLPGDEGSGNDQAPAAAAEASSEDTLYQCDCGTFFASAPALASHLEAHSGPATYGCGHCGALYAALAALEEHRRASHGEGSGEAAPDGEGNQAAGGPGPGSSSRSKKIFGCSECEKLFRSPRDLERHVLVHTGEKPFPCLECGKFFRHECYLKRHRLLHGTERPFPCHICGKGFITLSNLSRHLKLHRGMD
B5: Non-POU Domain Containing Octamer Binding (Nono) (protein, UniProt Q99K48 1-473)
chain: MQSNKAFNLEKQNHTPRKHHQHHHQQHHQQQQQQQQQQPPPPIPANGQQASSQNEGLTIDLKNFRKPGEKTFTQRSRLFVGNLPPDITEEEMRKLFEKYGKAGEVFIHKDKGFGFIRLETRTLAEIAKVELDNMPLRGKQLRVRFACHSASLTVRNLPQYVSNELLEEAFSVFGQVERAVVIVDDRGRPSGKGIVEFSGKPAARKALDRCSEGSFLLTTFPRPVTVEPMDQLDDEEGLPEKLVIKNQQFHKEREQPPRFAQPGSFEYEYAMRWKALIEMEKQQQDQVDRNIKEAREKLEMEMEAARHEHQVMLMRQDLMRRQEELRRMEELHNQEVQKRKQLELRQEEERRRREEEMRRQQEEMMRRQQEGFKGTFPDAREQEIRMGQMAMGGAMGINNRGAMPPAPVPPGTPAPPGPATMMPDGTLGLTPPTTERFGQAATMEGIGAIGGTPPAFNRPAPGAEFAPNKRRRY
B6: Stag2 (protein, UniProt O35638 1-1231)
chain: MIAAPEIPTDFNLLQESETHFSSDTDFEDIEGKNQKQGKGKTCKKGKKGPAEKGKSGNGGGKPPSGSNRMNGHHQQNGVENMMLFEVVKMGKSAMQSVVDDWIESYKHDRDIALLDLINFFIQCSGCKGVVTAEMFRHMQNSEIIRKMTEEFDEDSGDYPLTMAGPQWKKFKSSFCEFIGVLVRQCQYSIIYDEYMMDTVISLLTGLSDSQVRAFRHTSTLAAMKLMTALVNVALNLSINMDNTQRQYEAERNKMIGKRANERLELLLQKRKELQENQDEIENMMNAIFKGVFVHRYRDAIAEIRAICIEEIGIWMKMYSDAFLNDSYLKYVGWTMHDKQGEVRLKCLTALQGLYYNKELNSKLELFTSRFKDRIVSMTLDKEYDVAVQAIKLLTLVLQSSEEVLTAEDCENVYHLVYSAHRPVAVAAGEFLYKKLFSRRDPEEDGLMKRRGRQGPNANLVKTLVFFFLESELHEHAAYLVDSMWDCATELLKDWECMNSLLLEEPLSGEEALTDRQESALIEIMLCTIRQAAECHPPVGRGTGKRVLTAKEKKTQLDDRTRITELFAVALPQLLAKYSVDAEKVTNLLQLPQYFDLEIYTTGRLEKHLDALLRQIRNIVEKHTDTDVLEACSKTYHALCNEEFTIFNRVDISRSQLIDELADKFNRLLEDFLQEGEEPDEDDAYQVLSTLKRITAFHNAHDLSKWDLFACNYKLLKTGIENGDMPEQIVIHALQCAHYVILWQLAKITESTSTKEDLLRLKKQMRVFCQICQHYLTNVNTTVKEQAFTILCDILMIFSHQIMSGGRDMLEPLVYTPDSSLQSELLSFILDHVFIEQDDDSNSADGQQEDEASKIEALHKRRNLLAAFCKLIVYTVVEMNTAADIFKQYMKYYNDYGDIIKETMSKTRQIDKIQCAKTLILSLQQLFNEMIQENGYNFDRSSSTFSGIKELARRFALTFGLDQLKTREAIAMLHKDGIEFAFKEPNPQGESHPPLNLAFLDILSEFSSKLLRQDKRTVYVYLEKFMTFQMSLRREDVWLPLMSYRNSLLAGGDDDTMSVISGMSSRGSTVRSKKSKPSTGKRKVVEGMQLALPEESSSSDSMWLSREQTLHTPVMMQTPQLTSTIMREPKRLRPEDSFMSVYPMQAEHHQTPLDYNRRGTSLMEDDEEPIVEDVMMSSEGRIEDLNEGMDFDTMDIDLPPSKNRRERTELKPDFFDPASIMDESVLGVSMF
B7: Pds5a (protein, UniProt Q6A026 1-1332)
chain: MDFTQPKPATALCGVVSADGKIAYPPGVKEITDKITTDEMIKRLKMVVKTFMDMDQDSEDEKQQYLPLALHLASEFFLRNPNKDVRLLVACCLADIFRIYAPEAPYTSHDKLKDIFLFITRQLKGLEDTKSPQFNRYFYLLENLAWVKSYNICFELEDCNEIFIQLFRTLFSVINNSHNTKVQMHMLDLMSSIIMEGDGVTQELLDSILINLIPAHKNLNKQSFDLAKVLLKRTVQTIEACIANFFNQVLVLGRSSVSDLSEHVFDLIQELFAIDPQLLLSVMPQLEFKLKSNDGEERLAVVRLLAKLFGSKDSDLATQNRPLWQCFLGRFNDIHVPVRLESVKFASHCLMNHPDLAKDLTEYLKVRSHDPEEAIRHDVIVTIITAAKRDLALVNDQLLGFVRERTLDKRWRVRKEAMMGLAQLYKKYCLHGEAGKEAAEKVSWIKDKLLHIYYQNSIDDKLLVEKIFAQYLVPHNLETEERMKCLYYLYASLDPNAVKALNEMWKCQNMLRSHVRELLDLHKQPTSEANCSAMFGKLMTIAKNLPDPGKAQDFVKKFNQVLGDDEKLRSQLELLISPTCSCKQADVCVREIARKLANPKQPTNPFLEMVKFLLERIAPVHIDSEAISALVKLMNKSIEGTADDEEEGVSPDSAIRSGLELLKVLSFTHPTSFHSAETYESLLQCLRMEDDKVAEAAIQIFRNTGHKIETDLPQIRSTLIPILHQKAKRGTPHQAKQAVHCIHAIFSNKEVQLAQIFEPLSRSLNADVPEQLITPLVSLGHISMLAPDQFASPMKSVVANFIVKDLLMNDRSTGEKNGKLWSPDEEVSPEVLAKVYLLRLLVRWLLGMKNNQSKSANSTLRLLSAMLVSEGDLTEQKRISKSDMSRLRLAAGSAIMKLAQEPCYHEIITPEQFQLCALVINDECYQVRQIFAQKLHKALVKLLLPLEYMAIFALCAKDPVKERRAHARQCLLKNISIRREYIKQNPMATEKLLSLLPEYVVPYMIHLLAHDPDFTRSQDVDQLRDIKECLWFMLEVLMTKNENNSHAFMKKMAENIKLTRDAQSPDESKTNEKLYTVCDVALCVINSKSALCNADSPKDPVLPMKFFTQPEKDFCNDKSYISEETRVLLLTGKPKPTGVLGTVNKPLSATGRKPYVRSAGTETGSNINANSELSPSAGSRSREQSSEASETGVSENEENPVRIISVTPVKNIDTVKNKEINSDQSTQGNISSDRGKKRIVTAAGAENIQKPDEKVDESGPPAPSKPRRGRRPKSESQGNATKNDDLNKPVSKGRKRAAGSQESLEAGNAKAPKLQDGAKKAVPAERQIDLQR

molecular target: T1, CCCTC-binding factor (CTCF), immunoprecipitated from ES and NS cell chromatin in ChIP-SICAP (mouse (endogenous in ES and NS cells)) (UniProt Q61164); experiment: affinity purification with mass spectrometry; ChIP-SICAP: ES and NS cells fixed with 1.5% formaldehyde, chromatin sonicated, immunoprecipitated with anti-CTCF (D31H2), DNA biotinylated by TdT, eluted and recaptured on streptavidin beads, on-bead digestion, Orbitrap MS; abundances normalised to CTCF
T1 sequence: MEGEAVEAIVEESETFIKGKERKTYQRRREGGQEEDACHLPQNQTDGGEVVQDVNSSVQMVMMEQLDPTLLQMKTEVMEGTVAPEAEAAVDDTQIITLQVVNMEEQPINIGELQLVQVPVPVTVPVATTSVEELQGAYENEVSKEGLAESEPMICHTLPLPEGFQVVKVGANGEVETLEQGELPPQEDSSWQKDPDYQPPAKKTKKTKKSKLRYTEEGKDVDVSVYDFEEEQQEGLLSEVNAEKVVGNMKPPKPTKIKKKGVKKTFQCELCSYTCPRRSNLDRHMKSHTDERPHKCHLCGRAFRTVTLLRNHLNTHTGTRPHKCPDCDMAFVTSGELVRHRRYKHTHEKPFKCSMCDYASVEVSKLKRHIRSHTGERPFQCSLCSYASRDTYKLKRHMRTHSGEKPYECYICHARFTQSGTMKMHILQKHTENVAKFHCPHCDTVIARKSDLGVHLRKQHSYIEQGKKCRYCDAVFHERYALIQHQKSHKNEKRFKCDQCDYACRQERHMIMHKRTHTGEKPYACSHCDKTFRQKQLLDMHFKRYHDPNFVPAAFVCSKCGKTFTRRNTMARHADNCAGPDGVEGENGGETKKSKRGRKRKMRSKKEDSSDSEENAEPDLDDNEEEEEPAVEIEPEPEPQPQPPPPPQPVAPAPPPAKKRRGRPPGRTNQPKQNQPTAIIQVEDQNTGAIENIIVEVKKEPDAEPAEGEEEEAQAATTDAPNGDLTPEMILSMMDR

Molecule | binding
Sall4 (from UniProt Q8BX22 1-1067) | binds
Suz12 (from UniProt Q80U70 1-741) | binds
topoisomerase 2B (from UniProt Q64511 1-1612) | binds
SWI/SNF family chromatin remodeller Smarca5 (from UniProt Q91ZW3 1-1051) | binds

molecular target: T1, CCCTC-binding factor (CTCF), immunoprecipitated from ES and NS cell chromatin in ChIP-SICAP (mouse (endogenous in ES and NS cells)); experiment: as above; remark: another data set of the same source

Molecule | binding
B1 | binds
B2 | binds
B3 | binds
B4 | binds
B5 | binds
B6 | binds
B7 | binds

Results are given in words; binding and its absence hold for the method and conditions named. Binding seen in cells or lysates may run through a third protein. A yes stands for co-enrichment or nearness to the bait. Other partners may have been found. For some assays here: Tags and fused reporters may be left off the sequences shown.
